Record: PubChem BioAssay AID1259425 (University of Nebraska Medical Center, 2018)
This is one part, drawn at random, of about 14,000 reagents tested. No sequences are given here. Not given: the time to read-out.

- Purpose: 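Compare each knockdown with KSR1 silencing using changes in marker transcripts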 (primary screen)
- Cells: HCT116 human colon cancer cells
- Reagents: siRNA pool against human genes, 50 nM siRNA
- Detection: 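mRNA of six signature genes measured together by branched-DNA assay after 50 nM siRNA pool, blank removed, divided by geometric mean of two housekeeping genes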
- Scale: BNIP3L mRNA: higher = more BNIP3L transcript after knockdown; NDRG1 mRNA: higher = more NDRG1 transcript after knockdown; BNIP3 mRNA: higher = more BNIP3 transcript after knockdown; ALDOC mRNA: higher = more ALDOC transcript after knockdown; ACSL5 mRNA: higher = more ACSL5 transcript after knockdown

| target | BNIP3L mRNA, set 1 | NDRG1 mRNA, set 1 | BNIP3 mRNA, set 1 | ALDOC mRNA, set 1 | ACSL5 mRNA, set 1 |
| --- | --- | --- | --- | --- | --- |
| CTNNAL1 | 0.137 | 0.136 | 0.315 | 0.0189 | 0.127 |
| ACP2 | 0.0683 | 0.288 | 0.33 | 0.022 | 0.157 |
| ISLR | 0.0748 | 0.146 | 0.453 | 0.0198 | 0.266 |
| RTL6 | 0.366 | 0.145 | 0.184 | 0.079 | 0.379 |
| MCM8 | 0.0779 | 0.224 | 0.306 | 0.0342 | 0.379 |
| DRD5 | 0.142 | 0.488 | 0.275 | 0.0582 | 0.166 |
| RNF186 | 0.106 | 0.0835 | 0.156 | 0.0168 | 0.0704 |
| RRM2 | 0.184 | 1.15 | 0.347 | 0.0221 | 0.284 |
| CDKN2D | 0.259 | 0.598 | 0.679 | 0.0135 | 0.33 |

2 entries from above, showing only “BNIP3L mRNA, set 1”.
ISLR: 0.0748
RTL6: 0.366

More results follow:
| target | BNIP3L mRNA, set 1 | NDRG1 mRNA, set 1 | BNIP3 mRNA, set 1 | ALDOC mRNA, set 1 | ACSL5 mRNA, set 1 |
| --- | --- | --- | --- | --- | --- |
| RPS23 | 0.0776 | 0.146 | 0.323 | 0.0135 | 0.117 |
| TTC38 | 0.139 | 0.135 | 0.248 | 0.0351 | 0.0862 |
| NDUFB11 | 0.105 | 0.198 | 0.305 | 0.0249 | 0.124 |
| CDAN1 | 0.0806 | 0.241 | 0.238 | 0.0434 | 0.112 |
| FABP1 | 0.0808 | 0.0626 | 0.204 | 0.0288 | 0.0825 |
| DROSHA | 0.129 | 0.169 | 0.154 | 0.0259 | 0.204 |
| RABAC1 | 0.237 | 0.0589 | 0.308 | 0.0277 | 0.169 |
| TP53RK | 0.0838 | 0.1 | 0.218 | 0.0103 | 0.136 |
| PPP2R5C | 0.0812 | 0.114 | 0.27 | 0.0254 | 0.106 |
| SSTR5 | 0.0998 | 0.229 | 0.397 | 0.0233 | 0.0747 |
| CYP1A2 | 0.0718 | 0.19 | 0.351 | 0.0119 | 0.147 |
